Assay results: patent publication US20250049660A1, “ENOL ETHER PROPERFUME” (FIRMENICH SA, priority 2021, published 2025)

Assay: Dynamic headspace analysis of line-dried cotton treated with liquid fabric softener
Conditions: ± standard deviation; for Dynamic headspace concentration of 2-phenylethanol, profragrance / Dynamic headspace concentration of 2-phenylethyl formate, profragrance / Dynamic headspace concentration of decanal, profragrance / Dynamic headspace concentration of phenylacetaldehyde, profragrance / Dynamic headspace concentration of 2-methylundecanal, profragrance / Dynamic headspace concentration of 2-phenoxyethan-1-ol, profragrance / Dynamic headspace concentration of 2-phenoxyethyl formate, profragrance / Dynamic headspace concentration of octanal, profragrance / Dynamic headspace concentration of 2-octanol, profragrance / Dynamic headspace concentration of 2-octanyl formate, profragrance / Dynamic headspace concentration of undecanal, profragrance / Dynamic headspace concentration of 3,7-dimethyloctane, profragrance / Dynamic headspace concentration of 3,7-dimethyloctanyl formate, profragrance / Dynamic headspace concentration of 2-phenylpropanal, profragrance / Dynamic headspace concentration of dodecanal, profragrance: fabric softener; for Dynamic headspace concentration of the perfumery raw material itself, reference: reference fabric softener with 0.075 mmol of each free volatile

CCCCCCCCCC=COCCc1ccccc1 [Compound 9, (2-(undec-1-en-1-yloxy)ethyl)benzene]
Dynamic headspace concentration of 2-phenylethanol, profragrance (60 min sample (60-75 min)): 27.6 ± 3.3 ng/L | Dynamic headspace concentration of 2-phenylethyl formate, profragrance (60 min sample (60-75 min)): 168 ± 17.8 ng/L | Dynamic headspace concentration of decanal, profragrance (60 min sample (60-75 min)): 399 ± 35.5 ng/L | Dynamic headspace concentration of 2-phenylethanol, profragrance (120 min sample (120-135 min)): 24.9 ± 8.2 ng/L | Dynamic headspace concentration of 2-phenylethyl formate, profragrance (120 min sample (120-135 min)): 140 ± 32.9 ng/L | Dynamic headspace concentration of decanal, profragrance (120 min sample (120-135 min)): 346 ± 38.9 ng/L

C(=COCCc1ccccc1)Cc1ccccc1 [Compound 4, ((3-phenethoxyallyl)benzene)]
Dynamic headspace concentration of 2-phenylethanol, profragrance (60 min sample (60-75 min)): 25.9 ± 2.9 ng/L | Dynamic headspace concentration of 2-phenylethyl formate, profragrance (60 min sample (60-75 min)): 47.8 ± 9.6 ng/L | Dynamic headspace concentration of phenylacetaldehyde, profragrance (60 min sample (60-75 min)): 47.5 ± 4.8 ng/L | Dynamic headspace concentration of 2-phenylethanol, profragrance (120 min sample (120-135 min)): 32.9 ± 4.82 ng/L | Dynamic headspace concentration of 2-phenylethyl formate, profragrance (120 min sample (120-135 min)): 49.0 ± 11.0 ng/L | Dynamic headspace concentration of phenylacetaldehyde, profragrance (120 min sample (120-135 min)): 48.0 ± 7.6 ng/L

CCCCCCCCCC(C)C=COCCOc1ccccc1 (centres unmarked) [Compound 26, (2-((3-methyldodec-1-en-1-yl)oxy)ethoxy)benzene]
Dynamic headspace concentration of 2-methylundecanal, profragrance (60 min sample (60-75 min)): 355 ± 49.1 ng/L | Dynamic headspace concentration of 2-phenoxyethan-1-ol, profragrance (60 min sample (60-75 min)): 28 ± 4.6 ng/L | Dynamic headspace concentration of 2-phenoxyethyl formate, profragrance (60 min sample (60-75 min)): 209 ± 26.8 ng/L | Dynamic headspace concentration of 2-methylundecanal, profragrance (120 min sample (120-135 min)): 365 ± 91.3 ng/L | Dynamic headspace concentration of 2-phenoxyethan-1-ol, profragrance (120 min sample (120-135 min)): 37.2 ± 6.2 ng/L | Dynamic headspace concentration of 2-phenoxyethyl formate, profragrance (120 min sample (120-135 min)): 252 ± 18.1 ng/L

CCCCCCCC=COCC [Compound 36, 1-ethoxynon-1-ene, reference compound]
Dynamic headspace concentration of octanal, profragrance (60 min sample (60-75 min)): 12.1 ± 0.9 ng/L | Dynamic headspace concentration of octanal, profragrance (120 min sample (120-135 min)): 10.1 ± 0.7 ng/L

CCCCCCCCCCC=COC(C)CCCCCC (centres unmarked) [Compound 13, 1-(octan-2-yloxy)dodec-1-ene]
Dynamic headspace concentration of 2-octanol, profragrance (60 min sample (60-75 min)): 46.6 ± 9.8 ng/L | Dynamic headspace concentration of 2-octanyl formate, profragrance (60 min sample (60-75 min)): 28.5 ± 15 ng/L | Dynamic headspace concentration of undecanal, profragrance (60 min sample (60-75 min)): 132 ± 33.2 ng/L | Dynamic headspace concentration of 2-octanol, profragrance (120 min sample (120-135 min)): 56.6 ± 12.8 ng/L | Dynamic headspace concentration of 2-octanyl formate, profragrance (120 min sample (120-135 min)): 29.9 ± 20.5 ng/L | Dynamic headspace concentration of undecanal, profragrance (120 min sample (120-135 min)): 155 ± 46.9 ng/L

CCCCCCCC=COCCc1ccccc1 [Compound 14, (2-(non-1-en-1-yloxy)ethyl)benzene]
Dynamic headspace concentration of 2-phenylethanol, profragrance (60 min sample (60-75 min)): 13.8 ± 1.4 ng/L | Dynamic headspace concentration of 2-phenylethyl formate, profragrance (60 min sample (60-75 min)): 148 ± 28.9 ng/L | Dynamic headspace concentration of octanal, profragrance (60 min sample (60-75 min)): 366 ± 42.6 ng/L | Dynamic headspace concentration of 2-phenylethanol, profragrance (120 min sample (120-135 min)): 17.7 ± 1.7 ng/L | Dynamic headspace concentration of 2-phenylethyl formate, profragrance (120 min sample (120-135 min)): 167 ± 41.9 ng/L | Dynamic headspace concentration of octanal, profragrance (120 min sample (120-135 min)): 270 ± 14.8 ng/L

CCCCCCCCCC=COCC [Compound 37, 1-ethoxyundec-1-ene, reference compound]
Dynamic headspace concentration of decanal, profragrance (60 min sample (60-75 min)): 12.8 ± 9.8 ng/L | Dynamic headspace concentration of decanal, profragrance (120 min sample (120-135 min)): 20.0 ± 3.0 ng/L

CCCCCCCCCC=COCCC(C)CCCC(C)C (centres unmarked) [Compound 11, 1-((3,7-dimethyloctyl)oxy)undec-1-ene]
Dynamic headspace concentration of 3,7-dimethyloctane, profragrance (60 min sample (60-75 min)): 22.8 ± 6.4 ng/L | Dynamic headspace concentration of 3,7-dimethyloctanyl formate, profragrance (60 min sample (60-75 min)): 110 ± 36.6 ng/L | Dynamic headspace concentration of decanal, profragrance (60 min sample (60-75 min)): 296 ± 87.8 ng/L | Dynamic headspace concentration of 3,7-dimethyloctane, profragrance (120 min sample (120-135 min)): 28.4 ± 11.2 ng/L | Dynamic headspace concentration of 3,7-dimethyloctanyl formate, profragrance (120 min sample (120-135 min)): 84.7 ± 25.6 ng/L | Dynamic headspace concentration of decanal, profragrance (120 min sample (120-135 min)): 302 ± 102.6 ng/L

CC(C=COCCc1ccccc1)c1ccccc1 (centres unmarked) [Compound 5, (4-phenethoxybut-3-en-2-yl)benzene]
Dynamic headspace concentration of 2-phenylethanol, profragrance (60 min sample (60-75 min)): 29.8 ± 9.2 ng/L | Dynamic headspace concentration of 2-phenylethyl formate, profragrance (60 min sample (60-75 min)): 135 ± 59.8 ng/L | Dynamic headspace concentration of 2-phenylpropanal, profragrance (60 min sample (60-75 min)): 565 ± 199 ng/L | Dynamic headspace concentration of 2-phenylethanol, profragrance (120 min sample (120-135 min)): 26.5 ± 10.1 ng/L | Dynamic headspace concentration of 2-phenylethyl formate, profragrance (120 min sample (120-135 min)): 97.4 ± 50.0 ng/L | Dynamic headspace concentration of 2-phenylpropanal, profragrance (120 min sample (120-135 min)): 348 ± 103 ng/L

CC(C)=CCCC(C)CCOC=O (centres unmarked) [citronellyl formate, reference compound]
Dynamic headspace concentration of the perfumery raw material itself, reference (60 min sample (60-75 min)): 0.57 ± 0.29 ng/L | Dynamic headspace concentration of the perfumery raw material itself, reference (120 min sample (120-135 min)): 0.5 ± 0.16 ng/L

CCCCCCCCCCCC=COCCc1ccccc1 [Compound 2, (2-(tridec-1-en-1-yloxy)ethyl)benzene]
Dynamic headspace concentration of 2-phenylethanol, profragrance (60 min sample (60-75 min)): 54.8 ± 8.6 ng/L | Dynamic headspace concentration of 2-phenylethyl formate, profragrance (60 min sample (60-75 min)): 187 ± 15.4 ng/L | Dynamic headspace concentration of dodecanal, profragrance (60 min sample (60-75 min)): 448 ± 49.1 ng/L | Dynamic headspace concentration of 2-phenylethanol, profragrance (120 min sample (120-135 min)): 61.7 ± 8.7 ng/L | Dynamic headspace concentration of 2-phenylethyl formate, profragrance (120 min sample (120-135 min)): 174 ± 7.9 ng/L | Dynamic headspace concentration of dodecanal, profragrance (120 min sample (120-135 min)): 479 ± 37.4 ng/L

CCCCCCCCCCCC=O [dodecanal, reference compound]
Dynamic headspace concentration of the perfumery raw material itself, reference (60 min sample (60-75 min)): 117 ± 13.2 ng/L | Dynamic headspace concentration of the perfumery raw material itself, reference (120 min sample (120-135 min)): 145 ± 38.0 ng/L

Counter-ions that a name gives are not always drawn.
